In paper PMC10023806:
No constants are given. Whether binding was seen depends on the method and setting. Binding seen in cells or lysates may run through a third protein. Some binding calls cover weakened binding; strength is not graded here. Where a sequence is shown, tags or fusion partners need not be part of it.

The chains behind the UniProt entries cited, without tags or fusion partners.
UniProt Q9H8M2: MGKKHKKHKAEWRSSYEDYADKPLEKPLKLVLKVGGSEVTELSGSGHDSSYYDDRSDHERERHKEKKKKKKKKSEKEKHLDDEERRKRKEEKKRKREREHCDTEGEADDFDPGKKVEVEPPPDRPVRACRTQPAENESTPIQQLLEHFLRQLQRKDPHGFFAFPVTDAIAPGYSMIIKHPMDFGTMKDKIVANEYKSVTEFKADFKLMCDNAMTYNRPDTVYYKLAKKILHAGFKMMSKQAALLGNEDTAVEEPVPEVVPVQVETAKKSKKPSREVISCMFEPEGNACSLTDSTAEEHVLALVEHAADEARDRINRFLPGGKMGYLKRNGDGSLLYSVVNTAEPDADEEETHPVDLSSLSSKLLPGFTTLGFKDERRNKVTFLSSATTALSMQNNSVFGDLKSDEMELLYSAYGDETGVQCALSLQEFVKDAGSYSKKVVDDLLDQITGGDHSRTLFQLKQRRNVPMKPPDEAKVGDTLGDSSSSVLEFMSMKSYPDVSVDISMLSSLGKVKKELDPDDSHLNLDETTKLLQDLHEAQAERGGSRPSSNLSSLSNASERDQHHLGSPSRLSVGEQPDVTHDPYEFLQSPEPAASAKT

Assays:
[1] = target: T1, FLAG-BirA*-MCIDAS (human) (UniProt D6RGH6); experiment: proximity ligation; Duolink PLA in transfected HeLa cells, fixed and permeabilised; BRD9 (rabbit) and FLAG (mouse) primary antibodies
T1 sequence: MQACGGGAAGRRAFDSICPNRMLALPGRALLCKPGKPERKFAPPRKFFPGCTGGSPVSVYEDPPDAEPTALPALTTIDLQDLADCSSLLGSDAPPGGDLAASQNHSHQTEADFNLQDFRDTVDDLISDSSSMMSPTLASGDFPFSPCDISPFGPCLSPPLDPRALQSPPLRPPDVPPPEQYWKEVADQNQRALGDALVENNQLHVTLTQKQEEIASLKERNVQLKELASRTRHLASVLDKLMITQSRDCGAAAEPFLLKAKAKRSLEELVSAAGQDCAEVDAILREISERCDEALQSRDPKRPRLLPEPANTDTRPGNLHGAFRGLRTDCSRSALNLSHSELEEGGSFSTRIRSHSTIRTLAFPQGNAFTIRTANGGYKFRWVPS

[2] = target: T1, FLAG-BirA*-MCIDAS (human); experiment: proximity ligation; PLA with FLAG and BRD9 antibodies in doxycycline-induced DBTRG-05MG cells at Day 3 and Day 7, counterstained with acetylated tubulin; with or without dBRD9

binding [1]: binds
binding [2]: binds
Substance: BRD9 (from UniProt Q9H8M2 1-597)
